Reference: paper PMC10166177

By UniProt entry, the sequences of proteins in these tests, tags left out.
UniProt Q8BTI8: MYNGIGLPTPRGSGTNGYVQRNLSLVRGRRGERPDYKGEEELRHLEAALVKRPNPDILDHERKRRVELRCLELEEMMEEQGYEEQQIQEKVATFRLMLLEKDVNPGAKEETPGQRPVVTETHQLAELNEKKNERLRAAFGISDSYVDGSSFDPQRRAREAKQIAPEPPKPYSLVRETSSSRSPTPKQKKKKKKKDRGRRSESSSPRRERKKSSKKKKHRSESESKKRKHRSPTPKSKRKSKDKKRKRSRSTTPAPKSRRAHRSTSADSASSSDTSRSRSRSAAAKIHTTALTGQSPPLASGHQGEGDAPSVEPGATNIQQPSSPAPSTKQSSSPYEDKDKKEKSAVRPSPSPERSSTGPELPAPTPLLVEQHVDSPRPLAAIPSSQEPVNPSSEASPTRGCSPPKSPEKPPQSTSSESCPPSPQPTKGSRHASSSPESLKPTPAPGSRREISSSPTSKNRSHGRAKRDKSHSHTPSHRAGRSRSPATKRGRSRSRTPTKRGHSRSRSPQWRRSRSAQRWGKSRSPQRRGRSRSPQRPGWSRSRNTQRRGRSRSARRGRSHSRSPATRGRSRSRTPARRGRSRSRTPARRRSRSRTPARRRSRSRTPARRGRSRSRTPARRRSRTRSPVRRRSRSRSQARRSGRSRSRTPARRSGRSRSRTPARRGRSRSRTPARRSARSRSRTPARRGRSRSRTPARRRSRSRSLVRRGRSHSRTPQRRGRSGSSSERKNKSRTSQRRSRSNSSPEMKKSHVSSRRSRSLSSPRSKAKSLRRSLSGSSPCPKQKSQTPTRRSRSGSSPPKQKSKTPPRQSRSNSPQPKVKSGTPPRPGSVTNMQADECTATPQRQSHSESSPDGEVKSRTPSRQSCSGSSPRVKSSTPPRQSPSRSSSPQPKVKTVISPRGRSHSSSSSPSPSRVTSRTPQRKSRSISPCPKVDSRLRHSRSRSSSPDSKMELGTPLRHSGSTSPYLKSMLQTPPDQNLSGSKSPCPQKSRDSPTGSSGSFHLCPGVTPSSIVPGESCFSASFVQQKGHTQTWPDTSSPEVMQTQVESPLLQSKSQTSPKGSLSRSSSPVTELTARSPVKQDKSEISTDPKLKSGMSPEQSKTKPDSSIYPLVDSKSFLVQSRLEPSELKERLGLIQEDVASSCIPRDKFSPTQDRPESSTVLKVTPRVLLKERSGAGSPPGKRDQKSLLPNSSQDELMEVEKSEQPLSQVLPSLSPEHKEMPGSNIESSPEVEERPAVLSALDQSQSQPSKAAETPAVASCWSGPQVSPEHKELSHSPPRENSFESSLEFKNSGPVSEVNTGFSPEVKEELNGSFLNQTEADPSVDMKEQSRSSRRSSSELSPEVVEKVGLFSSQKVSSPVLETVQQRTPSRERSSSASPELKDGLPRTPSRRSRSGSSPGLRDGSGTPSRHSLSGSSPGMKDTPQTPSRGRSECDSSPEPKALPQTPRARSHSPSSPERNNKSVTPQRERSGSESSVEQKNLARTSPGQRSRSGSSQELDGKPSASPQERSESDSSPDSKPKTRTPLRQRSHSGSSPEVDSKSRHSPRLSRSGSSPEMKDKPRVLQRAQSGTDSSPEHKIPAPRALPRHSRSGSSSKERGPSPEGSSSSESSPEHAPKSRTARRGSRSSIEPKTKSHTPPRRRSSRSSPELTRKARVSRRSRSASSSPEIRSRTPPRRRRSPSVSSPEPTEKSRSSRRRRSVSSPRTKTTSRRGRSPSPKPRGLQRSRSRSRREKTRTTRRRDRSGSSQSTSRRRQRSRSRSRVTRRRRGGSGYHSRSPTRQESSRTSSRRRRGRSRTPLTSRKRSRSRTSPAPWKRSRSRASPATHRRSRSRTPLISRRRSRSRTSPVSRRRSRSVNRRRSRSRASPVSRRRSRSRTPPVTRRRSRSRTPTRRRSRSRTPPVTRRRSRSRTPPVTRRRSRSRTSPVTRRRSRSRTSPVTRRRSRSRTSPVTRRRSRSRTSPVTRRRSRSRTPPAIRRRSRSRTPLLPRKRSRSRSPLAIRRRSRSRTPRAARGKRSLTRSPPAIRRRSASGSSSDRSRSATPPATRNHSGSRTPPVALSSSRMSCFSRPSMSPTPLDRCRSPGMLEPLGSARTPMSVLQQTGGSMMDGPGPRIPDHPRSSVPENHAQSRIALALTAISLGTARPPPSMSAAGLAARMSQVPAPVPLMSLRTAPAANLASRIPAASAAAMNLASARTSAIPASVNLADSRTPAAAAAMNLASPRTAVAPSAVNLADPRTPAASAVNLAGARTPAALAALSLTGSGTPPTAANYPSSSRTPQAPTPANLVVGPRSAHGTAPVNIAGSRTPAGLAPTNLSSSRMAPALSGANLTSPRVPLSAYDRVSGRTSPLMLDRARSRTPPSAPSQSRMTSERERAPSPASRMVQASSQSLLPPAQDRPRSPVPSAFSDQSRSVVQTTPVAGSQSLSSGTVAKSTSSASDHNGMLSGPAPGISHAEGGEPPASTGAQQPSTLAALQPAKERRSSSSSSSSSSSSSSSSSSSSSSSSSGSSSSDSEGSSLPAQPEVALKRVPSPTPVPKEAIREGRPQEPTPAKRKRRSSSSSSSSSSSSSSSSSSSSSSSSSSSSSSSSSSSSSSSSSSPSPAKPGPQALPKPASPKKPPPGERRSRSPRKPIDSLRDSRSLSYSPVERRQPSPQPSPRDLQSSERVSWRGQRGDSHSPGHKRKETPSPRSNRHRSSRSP
UniProt O35691: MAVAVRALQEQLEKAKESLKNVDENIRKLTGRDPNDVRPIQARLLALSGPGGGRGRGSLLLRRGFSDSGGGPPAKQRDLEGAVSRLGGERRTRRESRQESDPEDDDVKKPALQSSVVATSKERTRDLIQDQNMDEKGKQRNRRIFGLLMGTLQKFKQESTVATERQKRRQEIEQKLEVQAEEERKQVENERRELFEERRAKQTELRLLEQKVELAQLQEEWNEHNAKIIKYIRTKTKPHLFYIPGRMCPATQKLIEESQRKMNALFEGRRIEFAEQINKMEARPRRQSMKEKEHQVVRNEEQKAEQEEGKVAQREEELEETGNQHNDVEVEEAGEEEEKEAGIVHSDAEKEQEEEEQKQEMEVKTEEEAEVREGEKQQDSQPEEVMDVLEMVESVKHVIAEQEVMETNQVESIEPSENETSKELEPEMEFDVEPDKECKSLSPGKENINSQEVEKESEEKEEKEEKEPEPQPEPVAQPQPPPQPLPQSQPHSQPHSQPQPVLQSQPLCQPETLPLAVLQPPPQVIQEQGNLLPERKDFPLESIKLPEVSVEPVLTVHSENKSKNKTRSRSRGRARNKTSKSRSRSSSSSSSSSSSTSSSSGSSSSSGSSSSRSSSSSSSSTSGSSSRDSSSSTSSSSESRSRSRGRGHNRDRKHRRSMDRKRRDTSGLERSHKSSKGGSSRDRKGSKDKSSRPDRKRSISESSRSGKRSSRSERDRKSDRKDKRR
UniProt Q6P4T2: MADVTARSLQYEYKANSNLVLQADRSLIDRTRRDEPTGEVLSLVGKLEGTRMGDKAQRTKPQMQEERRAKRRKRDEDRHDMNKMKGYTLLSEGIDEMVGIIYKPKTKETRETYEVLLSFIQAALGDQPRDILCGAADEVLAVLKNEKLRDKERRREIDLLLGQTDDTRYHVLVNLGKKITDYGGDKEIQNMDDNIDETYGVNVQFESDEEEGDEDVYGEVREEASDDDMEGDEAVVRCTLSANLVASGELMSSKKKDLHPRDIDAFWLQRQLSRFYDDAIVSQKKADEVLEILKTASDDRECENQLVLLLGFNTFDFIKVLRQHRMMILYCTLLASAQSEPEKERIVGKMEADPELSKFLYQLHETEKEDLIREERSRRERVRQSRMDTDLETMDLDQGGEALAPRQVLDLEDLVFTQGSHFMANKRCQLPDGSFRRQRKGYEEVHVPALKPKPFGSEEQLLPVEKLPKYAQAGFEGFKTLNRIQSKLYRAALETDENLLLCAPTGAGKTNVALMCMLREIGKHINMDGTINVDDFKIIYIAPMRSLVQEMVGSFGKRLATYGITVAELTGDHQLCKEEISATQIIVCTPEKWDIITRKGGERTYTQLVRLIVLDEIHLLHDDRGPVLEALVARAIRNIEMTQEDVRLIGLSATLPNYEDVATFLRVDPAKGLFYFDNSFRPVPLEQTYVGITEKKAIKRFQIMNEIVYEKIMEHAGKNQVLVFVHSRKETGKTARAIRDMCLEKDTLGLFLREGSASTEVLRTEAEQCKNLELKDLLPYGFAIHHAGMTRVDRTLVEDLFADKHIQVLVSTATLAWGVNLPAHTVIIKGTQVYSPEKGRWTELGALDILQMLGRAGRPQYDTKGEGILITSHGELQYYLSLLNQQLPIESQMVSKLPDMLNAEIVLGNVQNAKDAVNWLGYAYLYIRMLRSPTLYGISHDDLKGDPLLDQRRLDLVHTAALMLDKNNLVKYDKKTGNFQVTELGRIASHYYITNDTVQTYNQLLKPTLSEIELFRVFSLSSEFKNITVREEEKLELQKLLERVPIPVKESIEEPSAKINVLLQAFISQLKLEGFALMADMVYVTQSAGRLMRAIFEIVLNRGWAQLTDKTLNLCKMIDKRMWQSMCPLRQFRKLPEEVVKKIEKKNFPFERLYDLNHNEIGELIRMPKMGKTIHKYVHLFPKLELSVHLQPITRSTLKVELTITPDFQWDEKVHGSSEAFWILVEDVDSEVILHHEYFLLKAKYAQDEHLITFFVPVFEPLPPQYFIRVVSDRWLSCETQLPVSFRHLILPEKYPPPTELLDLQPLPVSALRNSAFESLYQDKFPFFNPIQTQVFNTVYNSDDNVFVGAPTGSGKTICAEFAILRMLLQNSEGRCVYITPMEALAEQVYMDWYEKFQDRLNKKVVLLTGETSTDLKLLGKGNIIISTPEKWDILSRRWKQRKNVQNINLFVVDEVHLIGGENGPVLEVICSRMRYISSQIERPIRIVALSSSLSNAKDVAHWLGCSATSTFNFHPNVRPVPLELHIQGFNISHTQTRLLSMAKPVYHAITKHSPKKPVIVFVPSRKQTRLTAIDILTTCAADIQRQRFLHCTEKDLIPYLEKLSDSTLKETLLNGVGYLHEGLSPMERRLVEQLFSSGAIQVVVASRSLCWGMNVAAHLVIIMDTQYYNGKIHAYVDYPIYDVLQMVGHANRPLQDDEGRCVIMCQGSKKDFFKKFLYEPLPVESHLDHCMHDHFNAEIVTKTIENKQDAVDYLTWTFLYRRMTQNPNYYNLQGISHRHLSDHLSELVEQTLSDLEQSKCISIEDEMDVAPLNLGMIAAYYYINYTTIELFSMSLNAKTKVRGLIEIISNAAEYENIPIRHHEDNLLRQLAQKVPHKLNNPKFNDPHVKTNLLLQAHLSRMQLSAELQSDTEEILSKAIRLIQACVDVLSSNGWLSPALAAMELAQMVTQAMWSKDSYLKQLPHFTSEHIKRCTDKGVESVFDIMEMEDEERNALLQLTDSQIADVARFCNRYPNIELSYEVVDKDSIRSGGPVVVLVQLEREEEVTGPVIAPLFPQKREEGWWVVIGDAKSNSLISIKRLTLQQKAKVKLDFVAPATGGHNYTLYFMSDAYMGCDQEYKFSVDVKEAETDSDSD

B1: SFRS16 (protein, UniProt Q8CFC7 1-668)
chain: MWHEARKHERKLRGMMVDYKKRAERRREYYEKIKKDPAQFLQVHGRACKVHLDSAVALAAESPVNMMPWQGDTNNMIDRFDVRAHLDHIPDYTPPLLTTISPEQESDERKCNYERYRGLVQNDFAGISEEQCLYQIYIDELYGGLQRPSEDEKKKLAEKKASIGYTYEDSTVAEVEKVAEKPEEEESPAEEESNSDEDEVIPDIDVEVDVDELNQEQVADLNKQATTYGMADGDFVRMLRKDKEEAEAIKHAKALEEEKAMYSGRRSRRQRREFREKRLRGRKISPPSYARRDSPTYDPYKRSPSESSSESRSRSRSPSPGREEKITFITSFGGSDEEAAAAAAAAAASGAAPGKPPAPPQTGGPAPGRNASTRRRSSSSSASRTSSSRSSSRSSSRSRRGYYRSGRHARSRSRSWSRSRSRSRRYSRSRSRGRRHSDGGSRDGHRYSRSPARRGGYVPRRRSRSRSRSGDRYKRGARGPRHHSSSHSRSSWSLSPSRSRSVTRSGSRSQSRSRSRSQSHSQSQSHSPSPPREKLTRPAASPAVGEKLKKTEPAAGKETGAAKPKLTPQERLKLRMQKALNRQFKADKKAAQEKMIQQEHERQEREDELRAMARKIRMKERERREKEREEWERQYSRQSRSPSPRYSREYSSSRRRSRSRSRSPHYRH
B2: ACIN1 (protein, UniProt Q9JIX8 1-1338)
chain: MWGRKRPNSSGETRGILSGNRGVDYGSGRGQSGPFEGRWRKLPKMPEAVGTDPSTSRKMAELEEVTLDGKPLQALRVTDLKAALEQRGLAKSGQKSALVKRLKGALMLENLQKHSTPHAAFQPNSQIGEEMSQNSFIKQYLEKQQELLRQRLEREAREAAELEEASAESEDEMTHPEGVASLLPPDFQSSLNRPELELSTHSPRKSSSFSEEKGESDDEKPRKGERRSSRVRQAKSKLPEYSQTAEEEEDQETPSRNLRVRADRNLKIEEEEEEEEEEEDDDDEEEEEVDEAQKSREAEAPTLKQFEDEEGEERTRAKPEKVVDEKPLNIRSQEKGELEKGGRVTRSQEEARRSHLARQQQEKETQIVSLPQEENEVKSSQSLEEKSQSPSPPPLPEDLEKAPVVLQPEQIVSEEETPPPLLTKEASSPPTHIQLQEEMEPVEGPAPPVLIQLSPPNTDAGAREPLASPHPAQLLRSLSPLSGTTDTKAESPAGRVSDESVLPLAQKSSLPECSTQKGVESEREKSAPLPLTVEEFAPAKGITEEPMKKQSLEQKEGRRASHALFPEHSGKQSADSSSSRSSSPSSSSSPSRSPSPDSVASRPQSSPGSKQRDGAQARVHANPHERPKMGSRSTSESRSRSRSRSRSASSSSRKSLSPGVSRDSNTSYTETKDPSCGQEAAAPSGPQLQVLEPKEKAPTFSASVRGRHLSHPEPEQQHVIQRLQPEQGSPKKCEAEEAEPPAATQPQTSETQISHLLESERTHHTVEEKEEVTMDTSENRPENEVPEPPLPVADQVSNDERPEGGAEEEEKKESSMPKSFKRKISVVSATKGVQAGNSDTEGGQPGRKRRWGASTAATQKKPSISITTESLKSLIPDIKPLAGQEAVVDLHADDSRISEDETERNGDDGTHDKGLKICRTVTQVVPAEGQENGQREEEEEKEPEAELPAPPQVSVEVALPPPVEHEVKKVTLGDTLTRRSISQQKSGVSITIDDPVRTAQVPSPPRGKISNIVHISNLVRPFTLGQLKELLGRTGTLVEEAFWIDKIKSHCFVTYSTVEEAVATRTALHGVKWPQSNPKFLCADYAEQDELDYHRGLLVDRPSETKAEEQGAPRPLHPPPPPPVQPPPHPRAEQREQERAVREQWAEREREMERRERTRSEREWDRDKVREGPRSRSRSRDRRRKERAKSKEKKSEKKEKAQEEPPAKLLDDLFRKTKAAPCIYWLPLTESQIVQKEAEQAERAKEREKRRKEREEEEQKEREKEAERERNRQLEREKRREHSRERERDRERERDRGDRERERERDRDRGRERDRRDTKRHSRSRSRSTPVRDRGGRR
B3: RNPS1 (RNA binding protein with serine-rich domain 1) (protein, UniProt Q99M28 1-305)
chain: MDLSGVKKKSLLGVKENNKKSSTRAPSPTKRKDRSDEKSKDRSKDKGATKESSEKDRGRDKTRKRRSASSGSSSTRSRSSSTSSSGSSTSTGSSSGSSSSSASSRSGSSSTSRSSSSSSSSGSPSPSRRRHDNRRRSRSKSKPPKRDEKERKRRSPSPKPTKVHIGRLTRNVTKDHIMEIFSTYGKIKMIDMPVERMHPHLSKGYAYVEFENPDEAEKALKHMDGGQIDGQEITATAVLAPWPRPPPRRFSPPRRMLPPPPMWRRSPPRMRRRSRSPRRRSPVRRRSRSPGRRRHRSRSSSNSSR
B4: SRSF7 (protein, UniProt Q8BL97 1-267)
chain: MRSSARGRPLQAATAFFLSLFFFLRRFERGFWLWGGDSETKVYVGNLGTGAGKGELERAFSYYGPLRTVWIARNPPGFAFVEFEDPRDAEDAVRGLDGKVICGSRVRVELSTGMPRRSRFDRPPARRPFDPNDRCYECGEKGHYAYDCHRYSRRRRSRSRSRSHSRSRGRRYSRSRSRSRGRRSRSASPRRSRSVSLRRSRSASLRRSRSGSIIGSRYFQSRSRSRSRSRSISRPRSSRSKSRSPSPKRSRSPSGSPHRSASPERMD
B5: RBMX2 (protein, UniProt Q8R0F5 1-326)
chain: MNPLTKVKLINELNEREVQLGVAEKVSWHSEYKHSAWIFVGGLPYELTEGDIICVFSQYGEIVNINLVRDKKTGKSKGFCFLCYEDQRSTVLAVDNFNGIKIKGRTIRVDHVSNYRAPQESEDVDDVTRELQEKGCGVKTPPSSPPEVSEDEDAKLTKKHKKDKKEKKKRKKEKTEGQAQAEQPSCSRSATVKEKKDERASRKHSSKTSERAQKSEHRESKKSHSGSPDGRSSYHARAEDPECKARKEKPKHEHKSASRREAEEKSRERERGRSSGTHSGRHRGHSDGRSHRSRSRSRSPDKSHRHKKYRHSRERDSYHGSDRRHH
B6: BUD13 (protein, UniProt Q8R149 1-637)
chain: MAAAPPLTKAEYLKRYLSGTDAGLEGGPEAGRKRRKKRPKPGGAGGKGMRIVDDDVGWAAISTAKPEKEEEEDGDLPVVAEFVDERPEEVKQMEAFRSSAKWKLLGGHGEDGHFHHDDQDSSPPRRVRHDTPDTSPPRKARHDTPDPSPPRKARHDTPDTSPPRKARHDTPDPSPPRKARHDTPDPSPPRRVRHDTPDLSPPRRVRHDTPDLSPPRRVRHDTPDPSPPRRVRHDLDASPPRKSHRNSSAVSPRRGHHGSLGTSSPRQTHNHSPTAAQHRRTLDSSGTQHLRRAHHESPDLELHKAKSSKAAERAPSKAASQSGLGPSHPSLSTNSKYEHDSDLSPPRKRQAKAHFEAKKQLDSKGVYQKASDSDLSPPRKKKNSGHQDSDSDLSPPRNRPRRQSSDSDLSPPRRRQRTKSSDSDLSPPRRSPRPGKKTAHMYSGAKTGLVTDVQREHQELKKQDQDTTDLGAQFEFTETVFRDKSGRKRNLKLERLEQRRKAEKDSERDELYAQWGKGLAQSRQQQQNVEDAMKEMQKPLARYIDDEDLDRMLREQEREGDPMANFIKKNKAKENKNKKVKPRYSGPAPPPNRFNIWPGYRWDGVDRSNGFEQKRFARLASKKAVEELAYKWSVEDM

Target: T1, Flag-tagged full-length SNIP1 (Smad Nuclear Interacting Protein 1) (UniProt Q8BIZ6)
T1 sequence: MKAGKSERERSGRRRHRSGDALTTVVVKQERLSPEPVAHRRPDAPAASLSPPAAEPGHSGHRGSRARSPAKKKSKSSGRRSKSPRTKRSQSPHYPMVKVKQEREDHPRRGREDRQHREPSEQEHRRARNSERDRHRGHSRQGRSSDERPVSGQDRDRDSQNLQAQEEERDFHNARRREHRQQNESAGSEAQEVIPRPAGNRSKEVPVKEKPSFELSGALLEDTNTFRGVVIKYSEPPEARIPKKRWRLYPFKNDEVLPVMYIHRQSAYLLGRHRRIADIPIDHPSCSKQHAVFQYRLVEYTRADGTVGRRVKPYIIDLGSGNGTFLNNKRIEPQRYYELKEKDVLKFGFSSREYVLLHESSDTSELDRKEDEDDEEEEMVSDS
Experiment: affinity purification with mass spectrometry; Flag-co-IP from N2a cells stably expressing SNIP1-Flag, anti-FLAG M2 magnetic beads, IP buffer (150 mmol/L KCl, 25 mmol/L Tris pH 7.4, 5 mmol/L EDTA, 1% Nonidet P-40), 4 °C overnight; LC-MS/MS; three biological replicates

Molecule | binding
SRm300 (from UniProt Q8BTI8 1-2703) | binds
PNN (from UniProt O35691 1-725) | binds
BRR2 (from UniProt Q6P4T2 1-2136) | binds
B1 | binds
B2 | binds
B3 | binds
B4 | binds
B5 | no binding
B6 | no binding

These are yes or no findings as the source states them, for the method shown. Binding seen in cells or lysates may run through a third protein. These calls come from enrichment with a bait or labelling near it, and not all partners need be listed. A no says only that the protein was not detected with the bait. Sequences can lack the tags named with a protein.
